In the supplement of paper PMC6078165:
The reference is the same well before dosing, and untreated signal decays as well.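 Fibroblast labels denote human fibroblasts, mainly primary ones from uterus (C12385, HUF), lung (H6013), bone (Hs27A), adrenal (HADF) and skin (WS1), plus mammary HMF and breast cancer-associated Hs343T. Cancer cells are basal-like or mesenchymal-like triple-negative breast cancer lines. A hit is a response shift exceeding 3x replicate standard deviation. The tissue of the other fibroblasts is not given here.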

Tested on: BT20
Experiment: relative JC-1 red fluorescence (viability) vs pre-drug, coculture with fibroblast (fraction); higher = more viable cancer cells
Protocol: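 JC-1 labelled TNBC cells cocultured 1:1 (1,500 cells each) with CellTrace Violet stained primary or stromal fibroblasts in 384-well plates in FluoroBrite medium, treated with one of 42 anticancer drugs at 0.1, 1, 10 or 100 uM. JC-1 red fluorescence (mitochondrial integrity in cancer cells only) was read by plate reader every 8 h for 72 h. Values are normalised to each well's pre-drug value. The stock of one drug was tenfold lower, so its dose labels may be too high.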

CC[C@]1(O)C[C@@H]2CN(CCc3c([nH]c4ccccc34)[C@@](C(=O)OC)(c3cc4c(cc3OC)N(C)[C@H]3[C@@](O)(C(=O)OC)[C@H](OC(C)=O)[C@]5(CC)C=CCN6CC[C@]43[C@@H]65)C2)C1 [Vinblastine]
relative JC-1 red fluorescence
Conditions | 8 h | 16 h | 24 h | 32 h | 40 h | 48 h | 56 h | 64 h | 72 h
10 µM, coculture fibroblast: C12385 | 0.8386 | 0.811 | 0.783 | 0.744 | 0.674 | 0.64 | 0.624 | 0.5955 | 0.568
10 µM, coculture fibroblast: H6013 | 0.8962 | 0.865 | 0.832 | 0.784 | 0.749 | 0.728 | 0.7083 | 0.6824 | 0.668
10 µM, coculture fibroblast: H6019 | 0.8276 | 0.772 | 0.7561 | 0.709 | 0.6475 | 0.632 | 0.605 | 0.59 | 0.585
10 µM, coculture fibroblast: H6076 | 0.978 | 0.902 | 0.823 | 0.791 | 0.7534 | 0.703 | 0.673 | 0.649 | 0.618
10 µM, coculture fibroblast: H6231 | 0.83959 | 0.937 | 0.833 | 0.752 | 0.71728 | 0.665 | 0.617 | 0.588 | 0.548
10 µM, coculture fibroblast: HADF | 0.964 | 0.932 | 0.894 | 0.87 | 0.863 | 0.829 | 0.83 | 0.81 | 0.786
10 µM, coculture fibroblast: HCFa | 0.9218 | 0.897 | 0.864 | 0.802 | 0.757 | 0.722 | 0.691 | 0.674 | 0.648
10 µM, coculture fibroblast: HCPF | 0.913 | 0.928 | 0.829 | 0.768 | 0.719 | 0.672 | 0.6322 | 0.6048 | 0.556
10 µM, coculture fibroblast: HHSteC | 0.9206 | 0.912 | 0.886 | 0.794 | 0.753 | 0.71 | 0.663 | 0.63 | 0.593
10 µM, coculture fibroblast: HMF | 0.836 | 0.96 | 0.871 | 0.792 | 0.7218 | 0.659 | 0.605 | 0.567 | 0.527
10 µM, coculture fibroblast: HPFa | 0.89816 | 0.838 | 0.828 | 0.7299 | 0.705 | 0.672 | 0.636 | 0.613 | 0.583
10 µM, coculture fibroblast: HUF | 0.8844 | 0.8148 | 0.7878 | 0.698 | 0.646 | 0.597 | 0.567 | 0.539 | 0.518
10 µM, coculture fibroblast: Hs5 | 0.793 | 0.947 | 0.873 | 0.818 | 0.76 | 0.713 | 0.662 | 0.626 | 0.606
10 µM, coculture fibroblast: Hs27A | 0.749 | 0.887 | 0.8714 | 0.877 | 0.842 | 0.846 | 0.84 | 0.821 | 0.78
10 µM, coculture fibroblast: Hs343T | 0.904 | 0.86 | 0.863 | 0.794 | 0.7238 | 0.654 | 0.585 | 0.557 | 0.521
10 µM, coculture fibroblast: WS1 | 0.819 | 0.773 | 0.7352 | 0.6545 | 0.573 | 0.529 | 0.487 | 0.457 | 0.431
100 µM, coculture fibroblast: C12385 | 0.729 | 0.579 | 0.472 | 0.379 | 0.301 | 0.275 | 0.241 | 0.24 | 0.207
100 µM, coculture fibroblast: H6013 | 0.82013 | 0.593 | 0.469 | 0.312 | 0.231 | 0.191 | 0.175 | 0.145 | 0.118
100 µM, coculture fibroblast: H6019 | 0.646 | 0.531 | 0.445 | 0.356 | 0.296 | 0.272 | 0.243 | 0.219 | 0.197
100 µM, coculture fibroblast: H6076 | 0.914 | 0.639 | 0.503 | 0.439 | 0.374 | 0.315 | 0.267 | 0.233 | 0.184
100 µM, coculture fibroblast: H6231 | 0.947 | 0.628 | 0.39 | 0.281 | 0.184 | 0.134 | 0.0973 | 0.0702 | 0.0469
100 µM, coculture fibroblast: HADF | 0.924 | 0.793 | 0.646 | 0.439 | 0.354 | 0.293 | 0.268 | 0.243 | 0.203
100 µM, coculture fibroblast: HCFa | 0.814 | 0.785 | 0.634 | 0.428 | 0.32 | 0.278 | 0.245 | 0.217 | 0.175
100 µM, coculture fibroblast: HCPF | 0.918 | 0.603 | 0.447 | 0.374 | 0.336 | 0.289 | 0.236 | 0.208 | 0.158
100 µM, coculture fibroblast: HHSteC | 0.818 | 0.5508 | 0.465 | 0.306 | 0.251 | 0.21 | 0.194 | 0.17 | 0.138
100 µM, coculture fibroblast: HMF | 0.937 | 0.593 | 0.405 | 0.34 | 0.284 | 0.233 | 0.203 | 0.169 | 0.129
100 µM, coculture fibroblast: HPFa | 0.771 | 0.678 | 0.551 | 0.363 | 0.287 | 0.227 | 0.204 | 0.174 | 0.137
100 µM, coculture fibroblast: HUF | 0.754 | 0.671 | 0.585 | 0.395 | 0.292 | 0.238 | 0.207 | 0.175 | 0.155
100 µM, coculture fibroblast: Hs5 | 0.9255 | 0.601 | 0.495 | 0.378 | 0.302 | 0.25 | 0.204 | 0.167 | 0.13
100 µM, coculture fibroblast: Hs27A | 0.865 | 0.82 | 0.872 | 0.619 | 0.511 | 0.474 | 0.457 | 0.422 | 0.372
100 µM, coculture fibroblast: Hs343T | 0.838 | 0.49 | 0.301 | 0.236 | 0.19 | 0.143 | 0.0981 | 0.0741 | 0.044
100 µM, coculture fibroblast: WS1 | 0.598 | 0.395 | 0.326 | 0.249 | 0.188 | 0.16 | 0.137 | 0.117 | 0.106
